# Reference: PubChem BioAssay AID504467 (National Center for Advancing Translational Sciences (NCATS), 2011)
# In all, about 330,000 compounds went through this assay and about 7,700 (2.3%) were called active. Inconclusive means that the source gave no clear call. Such entries were picked first, then a sample of the others. The call rests on the fitted dose curve; in most records, active means well fitted inhibition curve with a large enough effect; inconclusive means small, poorly fitted or top-dose-only effect, or effect the other way; inactive means flat fitted curve, though single readings scatter. Where the call is inconclusive, the potency comes from a doubtful curve fit.
# Assay: qHTS screen for small molecules that inhibit ELG1-dependent DNA repair in human embryonic kidney (HEK293T) cells expressing luciferase-tagged ELG1; further: nearly all actives have a fitted effect of over 55% in size
# Details: HEK293T ELG1-luciferase reporter, luminescence, 16 h, DNA damage induced by 5-fluorouridine; series mostly up to 46.1 µM
# In short: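 Quantitative HTS, concentration-response format. 2,000 cells/well co-treated with 5-fluorouridine and compound, 16 hr in 5% CO2 at 37 °C; ONE-Glo luminescence read after 30 min.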
# Potency means the concentration at half of the fitted maximal effect.
row,Compound,Potency
1,O=[N+]([O-])c1ccc(N2CCCC2)nc1N1CCCC1,inactive
2,Cc1cc(C)cc(NC(=O)CCC(=O)Nc2nnc(C(C)C)s2)c1,"inconclusive: 16.4 µM [activator, single point]"
3,COc1ccccc1C(=O)NC(=S)Nc1ccc(NC(=O)c2cccs2)cc1,"inconclusive: 8.2 µM [inhibitor, partial curve, poor fit]"
4,Cc1cc(C(=O)NNC(=O)c2ccc(Cl)cc2)c2ccccc2n1,inactive
5,CC(C)C[C@H](NC(=O)c1nc[nH]c1C(=O)N1CCNCC1)C(=O)OC(C)(C)C,inactive
6,S=C(Nc1ccc(Cl)cc1)c1nc2ccccc2[nH]1,"inconclusive: 6.51 µM [activator, partial curve]"
7,Cc1nc(C)c(C(=O)N(c2ccccc2F)C(C(=O)NCC2CCCO2)c2ccccc2)s1 (stereo not given),inactive
8,Cc1nc2cc(NCc3cccs3)ccc2n1C,"inconclusive: 18.3 µM [activator, partial curve]"
9,O=C(OC1CCCCC1=O)c1cc(S(=O)(=O)N2CCOCC2)ccc1F (stereo not given),inactive
10,Cc1[nH]c2ccccc2c1Cc1nnc(SCCC#N)o1,inactive
11,C=C(C)COc1ccc(-c2nc(N)ncc2Oc2ccccc2OCC)c(O)c1,"inconclusive: 14.1 µM [inhibitor, single point]"
12,Cc1ccc(N=Cc2c(O)n(-c3cc(Cl)ccc3N3CCOCC3)c(=O)c3ccccc23)cc1C,"inconclusive: 6.51 µM [inhibitor, partial curve]"
13,CC(C)c1ccc(C2(C)NC(=O)N(CC(=O)NCC3COc4ccccc4O3)C2=O)cc1 (stereo not given),"inconclusive: 35.5 µM [inhibitor, single point]"
14,COc1ccccc1NC(=O)C(=O)N/N=C(\C)CC(=O)Nc1ccccn1,inactive
15,Cc1ccc(C)c(N2CCN(C(=O)c3ccc4c(c3)c(C)c(C)n4C)CC2)c1,"inconclusive: 18.3 µM [inhibitor, partial curve, poor fit]"
16,COc1ccc2sc(NC(=O)c3ccco3)nc2c1,"inconclusive: 0.366 µM [activator, full curve]"
17,Cc1ccc(S(=O)(=O)n2nc(-c3cccnc3)nc2N)cc1,"inconclusive: 17.8 µM [activator, single point]"
18,Cc1ccc(C2CC(=O)Nc3c2ccc2ccccc32)cc1[N+](=O)[O-] (stereo not given),"inconclusive: 29.1 µM [inhibitor, single point]"
19,C/C(N)=C(\C#N)C(=O)NCc1ccccn1,"inconclusive: 20.6 µM [activator, single point]"
20,O=C(CCc1ccccc1)NNC(=O)c1ccncc1,"inconclusive: 25.9 µM [activator, single point]"
21,COc1ccc(-c2nn(C)c3sc(C(=O)N4CCOCC4)cc23)cc1OC,"inconclusive: 5.17 µM [inhibitor, single point]"
22,O=C(Nc1cc(-c2ccccc2)nn1-c1ccccc1)c1ccccc1F,"inconclusive: 20.6 µM [inhibitor, single point]"
23,CCOc1cc(N2CCOCC2)c(OCC)cc1NC(=O)CN1CCCC1,inactive
24,COc1ccc(OCC(=O)Nc2cccc(NC(=O)COc3ccc(OC)cc3)n2)cc1,"inconclusive: 2.06 µM [activator, full curve]"

row,Compound,Potency
1,O=C(Nc1ccc2ncccc2c1)c1ccccc1,inactive
2,O=[N+]([O-])c1ccc(S(=O)(=O)Nc2cccc(-c3ccc(N4CCOCC4)nn3)c2)cc1,"inconclusive: 29.1 µM [activator, single point]"
3,COc1ccc(/C=N/NC(=O)c2ccoc2C)cc1OC,"inconclusive: 13 µM [activator, partial curve]"
4,Cc1ccn2c(CNCc3cnn(C)c3)c(C(=O)N3CCCCCC3)nc2c1,inactive
5,CC(C)n1nc(C(=O)Oc2cccc(Cl)c2Cl)c2ccccc2c1=O,"inconclusive: 23.1 µM [inhibitor, single point]"
6,Cc1cc(C)nc(SCc2csc(-c3ccccc3)n2)n1,"inconclusive: 5.8 µM [activator, partial curve]"
7,O=C(NCc1cccnc1)Nc1cc(Cl)cc(Cl)c1,inactive
8,CCNC(=S)N(Cc1ccco1)Cc1cc2cc3c(cc2[nH]c1=O)OCCO3,"inconclusive: 20.6 µM [inhibitor, partial curve, poor fit]"
9,O=C(CSc1ccc2ccccc2c1)Nc1ncccn1,"inconclusive: 5.8 µM [activator, partial curve]"
10,CSc1nc2cc3c(cc2n1C(=O)c1ccc(C)cc1)OCCO3,"inconclusive: 20.6 µM [activator, partial curve]"
11,O=C(CN(c1cccc(C(F)(F)F)c1)S(=O)(=O)c1ccccc1)N1CCOCC1,inactive
12,O=c1/c(=C\c2ccc3c(c2)OCO3)sc2n1CCCN=2,"inconclusive: 3.98 µM [activator, full curve]"
13,CCCOc1ncnc2c1sc1nc3c(cc12)COC(C)(C)C3,"inconclusive: 4.61 µM [activator, partial curve]"
14,CCCOc1ccc(/C=C/C(=O)OCC(=O)N(C)c2c(N)n(Cc3ccccc3)c(=O)[nH]c2=O)cc1OCC,inactive
15,Cc1ccccc1-c1nc(S(=O)(=O)c2ccc(Br)cc2)c(NCc2cccnc2)o1,"inconclusive: 29.1 µM [inhibitor, single point]"
16,COc1ccccc1CNC(=O)CN1CCN(c2ccc(C(C)=O)cc2)CC1,inactive
17,COC(=O)C1(C(F)(F)F)N=C2Sc3ccccc3N2C(N2CCOCC2)=N1 (stereo not given),"inconclusive: 23.1 µM [activator, single point]"
18,O=C(C(=O)N1CCN(c2cccc(Cl)c2)CC1)c1c[nH]c2ccccc12,"inconclusive: 29.1 µM [inhibitor, single point]"
19,CCN1C(=O)[C@@H]2[C@@H](c3ccc(-c4ccc(Cl)c(Cl)c4)c(OC)c3)N3CCC[C@@]3(C(=O)OC)[C@@H]2C1=O,"inconclusive: 7.94 µM [inhibitor, single point]"
20,COc1ccc2c(c1OC)C(=O)c1ccccc1C2=O,"inconclusive: 5.8 µM [activator, partial curve]"
21,COCCn1cc(C(=O)N2CCC(C)CC2)c2c3ccccc3n(C)c2c1=O,inactive
22,COc1ccc(CNC(=O)C2(CC(=O)NC(C)(C)C)CCCC2)cc1,inactive
23,COc1ccc(OC)c(CN2CCC(N3CCC(C(=O)NC4CC4)CC3)CC2)c1,"inconclusive: 23.1 µM [activator, partial curve, poor fit]"
24,CC1(NC(=O)Cc2csc(-c3ccc(Cl)cc3)n2)CCS(=O)(=O)C1 (stereo not given),"inconclusive: 20.6 µM [activator, single point]"

# An excerpt of these results, with tabs.
row	Compound	Potency
1	O=C(Nc1ccc2ncccc2c1)c1ccccc1	inactive
8	CCNC(=S)N(Cc1ccco1)Cc1cc2cc3c(cc2[nH]c1=O)OCCO3	inconclusive: 20.6 µM [inhibitor, partial curve, poor fit]
9	O=C(CSc1ccc2ccccc2c1)Nc1ncccn1	inconclusive: 5.8 µM [activator, partial curve]
18	O=C(C(=O)N1CCN(c2cccc(Cl)c2)CC1)c1c[nH]c2ccccc12	inconclusive: 29.1 µM [inhibitor, single point]
21	COCCn1cc(C(=O)N2CCC(C)CC2)c2c3ccccc3n(C)c2c1=O	inactive

# Later entries.

row,Compound,Potency
1,COc1ccc(-n2nnnc2CNC(=O)c2ccc(S(=O)(=O)N3CCOCC3)cc2)cc1,"inconclusive: 0.517 µM [inhibitor, single point]"
2,COC(=O)c1ccccc1NS(=O)(=O)c1ccc(F)cc1,inactive
3,COc1ccc(S(=O)(=O)N2CCCC(C(=O)NC3CCCCC3)C2)cc1 (stereo not given),"inconclusive: 25.9 µM [inhibitor, partial curve, poor fit]"
4,Cc1ccccc1OCC(=O)Nc1ccccc1CO,inactive
5,CC(C)(C)c1ccc(OCC(O)CSc2ncn[nH]2)cc1 (stereo not given),"inconclusive: 0.92 µM [activator, partial curve]"
6,O=C(NC1CCCCC1)N1CCCC(c2nc(-c3ccc(S(=O)(=O)N4CCCC4)cc3)no2)C1 (stereo not given),"inconclusive: 1.41 µM [inhibitor, partial curve, poor fit]"
7,Cc1ccc(S(=O)(=O)c2nc(S(C)(=O)=O)sc2N2CCN(C)CC2)cc1,inactive
8,O=C(Nc1ccc(Cl)c(S(=O)(=O)N2CCOCC2)c1)c1ccc(OCC2CCCO2)cc1 (stereo not given),active: 2.91 µM
9,CCC(=O)Nc1ccc(NC(=O)CSc2nc3cc4c(cc3cc2C)CCC4)cc1,"inconclusive: 1.03 µM [inhibitor, partial curve, poor fit]"
10,COc1cccc(OC)c1C(=O)NC(=S)Nc1ccc2oc(=O)ccc2c1,"inconclusive: 23.1 µM [inhibitor, single point]"
11,CCN(CC(=O)Nc1ccc(NC(C)=O)cc1)C(=O)c1cccc(S(=O)(=O)N2CCCC2)c1,inactive
12,CCCc1[nH]nc2c1C(c1ccsc1)C(C#N)=C(N)O2 (stereo not given),inactive
13,COc1ccccc1CN=c1c([N+](=O)[O-])nn(-c2ccc3c(c2)OCCO3)n1O,"inconclusive: 2.06 µM [activator, full curve]"
14,COc1ccccc1NC(=O)COC(=O)/C=C/c1ccc2c(c1)OCO2,"inconclusive: 23.1 µM [activator, single point]"
15,COc1ccccc1C(=O)NCC(=O)N1CC=C(c2ccccc2)CC1,"inconclusive: 20.6 µM [inhibitor, single point]"
16,CCOC(=O)C1CCCN(c2c(C(=O)c3ccccc3)cnc3ccc(OC)cc23)C1 (stereo not given),"inconclusive: 18.3 µM [inhibitor, single point]"
17,COC(=O)C1=NN(C(=O)c2ccc(Cl)cc2)C(O)(c2ccccc2)C1 (stereo not given),inactive
18,CCOc1cc(C(=O)Nc2cc(C)on2)cc(OCC)c1OCC,active: 20.6 µM
19,CC(C)CC1NC(=O)c2ccccc2-n2c1nc1ccccc1c2=O (stereo not given),"inconclusive: 23.1 µM [activator, partial curve, poor fit]"
20,COc1cccc(Oc2ccc(C(F)(F)F)cc2N)c1,"inconclusive: 16.4 µM [activator, partial curve]"
21,CNC(=S)N1N=C(c2ccc(C)cc2)CC1c1ccc(Br)cc1 (stereo not given),"inconclusive: 20.6 µM [inhibitor, single point]"
22,CCc1noc(C)c1C(=O)N1CCCC(N2CCN(c3cccc(Cl)c3)CC2)C1 (stereo not given),inactive
